Results from PubChem BioAssay AID2685 (National Center for Advancing Translational Sciences (NCATS), 2010).
Screen size: about 320,000 compounds; about 2,100 (0.66%) were called active. The inconclusive results got no clear call from the source; some entries with a clear call stand among them for comparison. The call rests on the fitted dose curve; in most records, active means well fitted inhibition curve with a large enough effect in the signal ratio, with a control signal flat (not every such curve was filed as active); inconclusive means small, poorly fitted or top-dose-only effect, or effect the other way, or a change in a side signal; inactive means flat fitted curve, though single readings scatter; the % refers to the signal ratio. Potencies beside an inconclusive call are fits to weak or partial responses and may not hold up.

Test: qHTS Assay for Lipid Storage Modulators in Drosophila S3 Cells
Settings: BODIPY lipid droplet fluorescence, 18-24 h, cells fed with added oleic acid; lipid storage change, negative = inhibition: at 46.1 µM (top of the series) unless noted
Method in brief: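 Drosophila S3 cells loaded with oleic acid (400 uM, as added) and compounds at several concentrations; lipid droplets imaged by 488-nm laser-scanning cytometry, 500–530 nm intensity and object ratio to cell channel. Percent activity normalized to 20 uM Triacsin C.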
On the % scale 0 is the no-effect control and ±100 the full control effect; potency means the concentration at half of the fitted maximal effect.

| Structure (SMILES) | lipid storage change, negative = inhibition | Potency |
| --- | --- | --- |
| CNC(=O)COC(=O)Cc1ccc(Cl)cc1 | inconclusive: -17.2% | – |
| O=C(NCCCn1ccnc1)c1nn2c(C(F)(F)F)cc(-c3ccc(Br)cc3)nc2c1Cl | – | inconclusive: 29.1 µM [cytotoxic, single point] |
| O=C(CSc1nc(O)c(C(c2ccccc2)c2ccccc2)c(=O)[nH]1)N1CCOCC1 | inconclusive: -15.4% | – |
| Cc1cccc(NC(=O)CN2CCN(C(=O)c3c(C)nn(Cc4ccccc4)c3C)CC2)c1C | inconclusive: 9.44% | – |
| COc1ccc(C2NC(=O)c3n[nH]c(C)c32)c(OC)c1 (configuration not stated) | inconclusive: 69.3% [activator] | – |
| Cn1c(NC(=O)c2cccs2)c(-c2cccs2)c(=O)c2ccccc21 | inconclusive: 15.3% | – |
| c1ccc2c(c1)OCC(c1nn3c(Cn4nnc5ccccc54)nnc3s1)O2 (configuration not stated) | – | inconclusive: 1.03 µM [rising, full curve, poor fit] |
| COc1ccccc1N1CCN(C(=O)C2CC=CCC2C(=O)O)CC1 (configuration not stated) | inconclusive: 8.21% | – |
| COc1ccc(-n2c(SCCC#N)nnc2-c2cc(Cl)ccc2OC)cc1Cl | inconclusive: 17.3% | – |
| Cc1ccc(C(=O)NNC(=S)NCC2CCCO2)cc1[N+](=O)[O-] (configuration not stated) | inconclusive: 28.1% | – |
| CC(C)(C)OC(=O)N1CCC(C(=O)N2CCOCC2)CC1 | inconclusive: -7.82% | – |
| Cc1ccc2c(c1)C(c1ccc(F)cc1)N(C(=O)c1ccc(S(=O)(=O)N(C)C)cc1)CC(=O)N2 (configuration not stated) | inconclusive: 22.7% | – |
| Cc1nc2ccccc2n1CCCOc1ccccc1 | inconclusive: -26.2% | – |
| Cc1nc2ccc(Br)cc2c2c1CC(CO)O2 (configuration not stated) | inconclusive: 12.2% | – |
| O=C(CN1CCN(Cc2ccccc2Cl)CC1)N/N=C/C=C\c1ccccc1[N+](=O)[O-] | inactive: 15.4% | – |
| COc1ccc(-c2csc(Nc3ncccc3C)n2)cc1 | inconclusive: -11.7% | – |
| O=C1C(=O)N(CCN2CCOCC2)C(c2ccc(Cl)cc2)/C1=C(/O)c1ccc(S(=O)(=O)N2CCOCC2)cc1 (configuration not stated) | – | inconclusive: 25.9 µM [activator, single point] |
| Cc1cc(NC(=O)c2ccc(Cl)cc2)n(-c2ccccc2)n1 | inconclusive: 13.4% | – |
| CC(C(=O)NC1CCCC1)N(Cc1ccc2c(c1)OCO2)C(=O)c1snc(C(N)=O)c1N (configuration not stated) | inconclusive: -37.4% | – |
| O=C(Cc1n[nH]c(=O)c2ccccc12)OCC(=O)c1ccc(F)cc1 | inconclusive | – |
| CS(=O)(=O)N(CC(=O)N1CCN(c2ccccc2F)CC1)c1cccc(C(F)(F)F)c1 | inconclusive: 12.7% | – |
| COc1cc(C=O)ccc1OC(=O)c1ccc(C(C)C)cc1 | – | inconclusive: 6.51 µM [cytotoxic, single point] |

Single values from the results shown:
Cc1nc2ccc(Br)cc2c2c1CC(CO)O2 (configuration not stated) | lipid storage change, negative = inhibition: inconclusive: 12.2%
CC(C)(C)OC(=O)N1CCC(C(=O)N2CCOCC2)CC1 | lipid storage change, negative = inhibition: inconclusive: -7.82%
